# Experimental data: PubChem BioAssay
# Where “and” joins values, the source holds several entries; their conditions need not be identical. Identical values can stand only once. The list shows a part of the results. Potency and affinity values are given separately. Where no call is shown, the source marks the result inconclusive.
# Legend:
# [1] = Drosophila SCA1 whole organism dose response for polyglutamine toxicity reduction (AID 1595); conditions: Drosophila SCA1 polyglutamine model, at 1 µM, stronger effect = higher value
# PubChem AID 1597 = conditions: Drosophila SCA1 polyglutamine model, at 1 µM, stronger effect = higher value
Structure (SMILES),suppression of toxicity [1],suppression of toxicity (PubChem AID 1597)
CCCCOc1ccc(C(=O)CCN2CCCCC2)cc1,0,3.57
CCOC(=O)[C@H](CCc1ccccc1)N[C@@H](C)C(=O)N1CCC[C@H]1C(=O)O,0,4.29
O=C(O)c1ccccc1Nc1cccc(C(F)(F)F)c1,0,5
OCCN(CCO)c1nc(N2CCCCC2)c2nc(N(CCO)CCO)nc(N3CCCCC3)c2n1,4.29,7.86
CN1CCN(CCCN2c3ccccc3Sc3ccc(C(F)(F)F)cc32)CC1,0,7.14
C1CCN2C[C@H]3C[C@H](CN4CCCC[C@@H]34)[C@H]2C1,0,1.43
CC(=O)CC(c1ccccc1)c1c(O)c2ccccc2oc1=O (stereo not drawn),0,0
Cc1nnc(SCC2=C(C(=O)O)N3C(=O)[C@@H](NC(=O)Cn4cnnn4)[C@H]3SC2)s1,7.14,6.42
NS(=O)(=O)c1cc(C(=O)O)c(NCc2ccco2)cc1Cl,25.7,3.57
NCC1CCC(C(=O)O)CC1 (stereo not drawn),5.71,5.71
CC(=O)[C@@]1(O)CCC2C3C[C@H](C)C4=CC(=O)C=CC4(C)[C@@]3(F)[C@@H](O)C[C@@]21C (stereo partly drawn),4.29,4.29
O=C1c2ccccc2C(=O)C1c1ccccc1,4.29,12.1
CC(=O)Nc1ccccc1,1.43 and 0,2.86 and 12.1
Nc1ccc(S(=O)(=O)NC(=O)c2ccccc2)cc1,5.71,9.29
CCN1CCN(C(=O)NC(C(=O)N[C@@H]2C(=O)N3[C@@H]2SC(C)(C)[C@@H]3C(=O)O)c2ccccc2)C(=O)C1=O (stereo partly drawn),5.71,6.43
CN1C[C@H](C(=O)N[C@]2(C)O[C@@]3(O)[C@@H]4CCCN4C(=O)[C@H](Cc4ccccc4)N3C2=O)C[C@@H]2c3cccc4[nH]cc(c34)C[C@H]21,1.43,2.86
C=C1CC[C@H](O)C/C1=C/C=C1\CCC[C@]2(C)C([C@H](C)/C=C/[C@H](C)C(C)C)CC[C@@H]12 (stereo partly drawn),11.4,7.14
CCC1(c2ccccc2)C(=O)NCNC1=O,4.3,6.42
COc1cnc(NS(=O)(=O)c2ccc(N)cc2)nc1,1.43,1.43
CCOC(=O)OC(C)OC(=O)C1N2C(=O)C(NC(=O)[C@H](N)c3ccccc3)C2SC1(C)C (stereo partly drawn),2.86,0

Structure (SMILES),suppression of toxicity [1],suppression of toxicity (PubChem AID 1597)
Cc1cc(=O)[nH]c(=S)[nH]1,7.14,7.86
CC(=O)O[C@@H]1CC2C(C)(C)C(=O)C=C[C@]2(C)C2CC[C@@]3(C)[C@H](c4ccoc4)OC(=O)[C@H]4O[C@]43[C@@]21C (stereo partly drawn),0,0
Nc1ncn([C@@H]2O[C@H](CO)[C@@H](O)[C@H]2O)c(=O)n1,7.14,10
Cc1cc(NC(=O)C2=C(O)c3ccccc3S(=O)(=O)N2C)no1,0,0.715
Cc1ccsc1/C=C/C1=NCCCN1C,0,0
CC1(C)O[C@@H]2C[C@H]3C4C[C@H](F)C5=CC(=O)C=CC5(C)[C@@]4(F)[C@@H](O)C[C@]3(C)[C@]2(C(=O)CO)O1 (stereo partly drawn),2.86,6.43
Clc1ccccc1C(c1ccccc1)(c1ccccc1)n1ccnc1,1.43,2.15
COc1cccc(OC)c1C(=O)N[C@@H]1C(=O)N2[C@@H]1SC(C)(C)[C@@H]2C(=O)O,2.85,4.29
CN(C)CCN(Cc1ccccc1)c1ccccn1,7.14,12.9
NCCCCCC(=O)O,5.71,1.43
CN1CCc2cccc3c2C1Cc1ccc(O)c(O)c1-3 (stereo not drawn),2.86,5.71
CC1(C)S[C@@H]2[C@H](NC(=O)[C@@H](N)c3ccc(O)cc3)C(=O)N2[C@H]1C(=O)O,4.29,7.14
CC1OC1P(=O)(O)O (stereo not drawn),2.85,2.86
C[N+]1(CCCCC[N+]2(C)CCCC2)CCCC1,0,2.15
C[N+]1(C)CCCC(OC(=O)C(O)(c2ccccc2)c2ccccc2)C1 (stereo not drawn),0,3.58
CCn1cc(C(=O)O)c(=O)c2ccc(C)nc21,2.9,7.29
CC1CCC2(OC1)OC1CC3C4CC[C@H]5C[C@@H](O)CC[C@]5(C)C4CC(=O)[C@]3(C)C1C2C (stereo partly drawn),0,2.85
CC[C@H]1OC(=O)[C@H](C)[C@@H](O[C@H]2C[C@@](C)(OC)[C@@H](O)[C@H](C)O2)[C@H](C)[C@@H](O[C@@H]2O[C@H](C)C[C@H](N(C)C)[C@H]2O)[C@](C)(O)C[C@@H](C)CN(C)[C@H](C)[C@@H](O)[C@]1(C)O,7.14,10
CO[C@@]1(NC(=O)Cc2cccs2)C(=O)N2C(C(=O)O)=C(COC(N)=O)CS[C@@H]21,1.43,3.58
